Laboratory results taken from publication PMC7736850, “Hemistepsin A suppresses colorectal cancer growth through inhibiting pyruvate dehydrogenase kinase activity” (Scientific Reports, 2020).
These are yes or no findings as the source states them, for the method shown. In cells and extracts the contact can be indirect. Some binding calls cover weakened binding; strength is not graded here.

Chains of the proteins cited; added tags and fusions are not shown. Residues count along the entry.
UniProt Q15118, residues 29-436: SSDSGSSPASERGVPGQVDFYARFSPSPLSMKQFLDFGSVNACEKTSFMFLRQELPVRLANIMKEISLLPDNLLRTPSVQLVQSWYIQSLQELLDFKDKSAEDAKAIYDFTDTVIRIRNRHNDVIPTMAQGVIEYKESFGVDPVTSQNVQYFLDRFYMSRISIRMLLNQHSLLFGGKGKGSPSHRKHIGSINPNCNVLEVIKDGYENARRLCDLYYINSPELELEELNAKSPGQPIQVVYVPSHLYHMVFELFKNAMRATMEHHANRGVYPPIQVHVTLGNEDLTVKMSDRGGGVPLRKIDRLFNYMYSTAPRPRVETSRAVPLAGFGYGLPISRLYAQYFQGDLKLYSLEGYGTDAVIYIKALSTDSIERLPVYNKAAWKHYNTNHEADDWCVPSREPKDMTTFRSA

Target: Glutathione S-transferase (GST) tagged-PDK1 (UniProt Q15118)
Test: pull-down; GST-PDK1 expressed in HEK 293T cells (treated with 0 or 10 μM HsA for 12 h), pulled down on Glutathione Sepharose 4B beads, washed with 20 mM potassium phosphate pH 7; PDH-E2 and PDHA1 detected by Western blot

binding: binds
B1: E2 subunit of the pyruvate dehydrogenase complex (PDH-E2) (protein, UniProt P10515 87-647)
chain: SLPPHQKVPLPSLSPTMQAGTIARWEKKEGDKINEGDLIAEVETDKATVGFESLEECYMAKILVAEGTRDVPIGAIICITVGKPEDIEAFKNYTLDSSAAPTPQAAPAPTPAATASPPTPSAQAPGSSYPPHMQVLLPALSPTMTMGTVQRWEKKVGEKLSEGDLLAEIETDKATIGFEVQEEGYLAKILVPEGTRDVPLGTPLCIIVEKEADISAFADYRPTEVTDLKPQVPPPTPPPVAAVPPTPQPLAPTPSAPCPATPAGPKGRVFVSPLAKKLAVEKGIDLTQVKGTGPDGRITKKDIDSFVPSKVAPAPAAVVPPTGPGMAPVPTGVFTDIPISNIRRVIAQRLMQSKQTIPHYYLSIDVNMGEVLLVRKELNKILEGRSKISVNDFIIKASALACLKVPEANSSWMDTVIRQNHVVDVSVAVSTPAGLITPIVFNAHIKGVETIANDVVSLATKAREGKLQPHEFQGGTFTISNLGMFGIKNFSAIINPPQACILAIGASEDKLVPADNEKGFDVASMMSVTLSCDHRVVDGAVGAQWLAEFRKYLEKPITMLL
